Like-named read-outs stand apart in the source and are kept apart here. Results are given in words; binding and its absence hold for the method and conditions named. In cells and extracts the contact can be indirect. These calls come from enrichment with a bait or labelling near it, and not all partners need be listed.

Sequences of proteins named here, by UniProt entry; tags and fusion partners are left off.
UniProt Q14160: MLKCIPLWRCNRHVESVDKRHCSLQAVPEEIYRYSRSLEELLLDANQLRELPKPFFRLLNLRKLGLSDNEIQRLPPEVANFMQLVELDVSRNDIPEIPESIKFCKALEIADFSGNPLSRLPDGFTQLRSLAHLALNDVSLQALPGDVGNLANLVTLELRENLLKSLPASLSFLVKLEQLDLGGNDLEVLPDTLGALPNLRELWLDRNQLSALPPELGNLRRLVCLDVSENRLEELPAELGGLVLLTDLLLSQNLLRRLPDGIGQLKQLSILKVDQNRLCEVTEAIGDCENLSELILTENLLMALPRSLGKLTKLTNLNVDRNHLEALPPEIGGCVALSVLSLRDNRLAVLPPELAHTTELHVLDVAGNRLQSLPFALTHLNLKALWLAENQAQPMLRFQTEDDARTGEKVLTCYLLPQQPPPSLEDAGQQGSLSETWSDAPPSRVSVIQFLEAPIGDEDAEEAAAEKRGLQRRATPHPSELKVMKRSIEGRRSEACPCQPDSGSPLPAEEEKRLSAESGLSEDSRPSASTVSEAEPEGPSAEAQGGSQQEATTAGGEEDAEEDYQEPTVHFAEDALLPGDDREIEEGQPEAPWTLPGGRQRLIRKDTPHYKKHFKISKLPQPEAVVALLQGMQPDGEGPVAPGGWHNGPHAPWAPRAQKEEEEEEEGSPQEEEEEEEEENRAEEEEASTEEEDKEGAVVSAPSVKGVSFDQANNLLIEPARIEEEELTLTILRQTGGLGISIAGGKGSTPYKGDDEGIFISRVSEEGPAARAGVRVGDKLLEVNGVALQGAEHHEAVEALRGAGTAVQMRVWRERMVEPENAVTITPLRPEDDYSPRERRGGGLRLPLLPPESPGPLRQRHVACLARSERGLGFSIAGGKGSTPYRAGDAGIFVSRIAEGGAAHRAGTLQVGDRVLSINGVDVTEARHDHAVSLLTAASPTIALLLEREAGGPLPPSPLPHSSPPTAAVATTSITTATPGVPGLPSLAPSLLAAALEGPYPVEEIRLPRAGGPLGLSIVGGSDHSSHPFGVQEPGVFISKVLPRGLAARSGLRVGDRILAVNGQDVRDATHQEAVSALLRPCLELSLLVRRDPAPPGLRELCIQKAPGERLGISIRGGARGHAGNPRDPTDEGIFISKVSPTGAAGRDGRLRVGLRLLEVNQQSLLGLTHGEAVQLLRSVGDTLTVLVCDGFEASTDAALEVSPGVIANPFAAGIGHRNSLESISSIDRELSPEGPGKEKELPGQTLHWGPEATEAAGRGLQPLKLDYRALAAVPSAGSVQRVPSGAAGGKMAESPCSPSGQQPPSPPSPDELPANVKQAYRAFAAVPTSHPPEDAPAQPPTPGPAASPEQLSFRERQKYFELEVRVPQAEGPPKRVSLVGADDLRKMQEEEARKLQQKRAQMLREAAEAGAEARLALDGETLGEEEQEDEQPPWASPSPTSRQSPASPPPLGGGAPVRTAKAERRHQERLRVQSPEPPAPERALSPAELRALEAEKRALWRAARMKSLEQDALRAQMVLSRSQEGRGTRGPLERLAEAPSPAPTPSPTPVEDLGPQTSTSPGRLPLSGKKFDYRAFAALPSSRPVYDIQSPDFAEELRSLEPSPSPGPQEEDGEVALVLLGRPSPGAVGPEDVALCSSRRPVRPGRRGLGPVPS
UniProt Q9HAV4: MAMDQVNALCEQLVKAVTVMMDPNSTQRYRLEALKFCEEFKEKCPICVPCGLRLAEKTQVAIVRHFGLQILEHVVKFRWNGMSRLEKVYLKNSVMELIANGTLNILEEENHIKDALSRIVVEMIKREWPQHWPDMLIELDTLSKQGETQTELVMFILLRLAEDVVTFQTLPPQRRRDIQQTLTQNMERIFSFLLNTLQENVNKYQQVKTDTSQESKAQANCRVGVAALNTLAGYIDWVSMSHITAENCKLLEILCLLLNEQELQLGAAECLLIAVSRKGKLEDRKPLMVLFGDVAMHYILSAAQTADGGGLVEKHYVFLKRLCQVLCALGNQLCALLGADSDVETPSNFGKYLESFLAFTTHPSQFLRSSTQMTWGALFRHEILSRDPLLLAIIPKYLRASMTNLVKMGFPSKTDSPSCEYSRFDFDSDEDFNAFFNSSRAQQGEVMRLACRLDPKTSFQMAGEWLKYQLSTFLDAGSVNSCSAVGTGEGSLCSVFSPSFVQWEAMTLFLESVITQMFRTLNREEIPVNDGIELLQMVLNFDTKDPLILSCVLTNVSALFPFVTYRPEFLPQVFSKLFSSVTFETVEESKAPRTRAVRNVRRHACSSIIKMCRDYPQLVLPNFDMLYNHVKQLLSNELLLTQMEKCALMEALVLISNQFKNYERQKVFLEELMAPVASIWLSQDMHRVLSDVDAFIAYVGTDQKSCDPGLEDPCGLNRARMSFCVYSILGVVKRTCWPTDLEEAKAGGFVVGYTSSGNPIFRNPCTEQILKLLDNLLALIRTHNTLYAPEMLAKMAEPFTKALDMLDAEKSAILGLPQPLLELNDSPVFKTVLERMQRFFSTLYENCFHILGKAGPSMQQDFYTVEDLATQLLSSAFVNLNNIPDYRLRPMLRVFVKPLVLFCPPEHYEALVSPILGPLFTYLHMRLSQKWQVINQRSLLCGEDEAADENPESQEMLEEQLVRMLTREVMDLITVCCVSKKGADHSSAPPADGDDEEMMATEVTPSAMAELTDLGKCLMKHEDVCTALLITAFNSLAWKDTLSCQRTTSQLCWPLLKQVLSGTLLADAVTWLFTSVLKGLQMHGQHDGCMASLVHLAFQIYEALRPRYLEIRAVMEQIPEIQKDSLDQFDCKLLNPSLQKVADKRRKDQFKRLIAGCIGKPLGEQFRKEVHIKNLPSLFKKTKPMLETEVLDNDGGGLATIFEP
UniProt P61224: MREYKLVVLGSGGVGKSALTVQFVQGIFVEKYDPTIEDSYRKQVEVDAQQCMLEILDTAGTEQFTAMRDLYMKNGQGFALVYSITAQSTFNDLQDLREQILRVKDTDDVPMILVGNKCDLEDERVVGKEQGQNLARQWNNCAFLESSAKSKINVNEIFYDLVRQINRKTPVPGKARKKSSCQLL
UniProt O75396: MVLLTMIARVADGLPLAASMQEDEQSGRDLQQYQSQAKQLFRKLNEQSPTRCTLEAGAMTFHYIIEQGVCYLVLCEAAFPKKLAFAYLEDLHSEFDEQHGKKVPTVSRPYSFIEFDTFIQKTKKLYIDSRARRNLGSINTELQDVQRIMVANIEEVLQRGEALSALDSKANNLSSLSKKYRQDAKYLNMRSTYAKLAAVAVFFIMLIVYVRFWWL

Common to all, as to assay: proximity labelling; TurboID (BioID): HA-TurboID-KRAS induced with doxycycline in HPNE cells, 50 umol/L biotin for 1 hour at 37°C, lysis in 8 mol/L urea, streptavidin beads, LC/MS-MS with LFQ intensities, compared with TurboID alone; biological triplicate
Experiment [1] has as its target HA-TurboID-KRAS^G12D (human) (UniProt P01116).
Experiment [2] has as its target HA-TurboID-KRAS^Q61L (human) (UniProt P01116).
The target is the same in experiment [3]. The source holds these as a separate data set.

Consider SCRIB (from UniProt Q14160 1-1655), for which the binding entry in experiment [1] and in experiment [2] was “binds” each time.
With XPO5 (from UniProt Q9HAV4 1-1204), the binding result in experiment [2] was “binds”.
On the same count and under the same terms, for RAP1B (from UniProt P61224 1-184) the value was “binds”.
Same read-out and setting: for SEC22B (from UniProt O75396 1-215) the value was “binds”.

B1: UACA (protein, UniProt Q9BZF9 1-1416)
chain: MKSLKSRLRRQDVPGPASSGAAAASAHAADWNKYDDRLMKAAERGDVEKVTSILAKKGVNPGKLDVEGRSVFHVVTSKGNLECLNAILIHGVDITTSDTAGRNALHLAAKYGHALCLQKLLQYNCPTEHADLQGRTALHDAAMADCPSSIQLLCDHGASVNAKDVDGRTPLVLATQMSRPTICQLLIDRGADVNSRDKQNRTALMLGCEYGCRDAVEVLIKNGADISLLDALGHDSSYYARIGDNLDILTLLKTASENTNKGRELWKKGPSLQQRNLTHMQDEVNVKSHQREHQNIQDLEIENEDLKERLRKIQQEQRILLDKVNGLQLQLNEEVMVADDLESEREKLKSLLAAKEKQHEESLRTIEALKNRFKYFESDHLGSGSHFSNRKEDMLLKQGQMYMADSQCTSPGIPAHMQSRSMLRPLELSLPSQTSYSENEILKKELEAMRTFCESAKQDRLKLQNELAHKVAECKALALECERVKEDSDEQIKQLEDALKDVQKRMYESEGKVKQMQTHFLALKEHLTSEAASGNHRLTEELKDQLKDLKVKYEGASAEVGKLRNQIKQNEMIVEEFKRDEGKLIEENKRLQKELSMCEMEREKKGRKVTEMEGQAKELSAKLALSIPAEKFENMKSSLSNEVNEKAKKLVEMEREHEKSLSEIRQLKRELENVKAKLAQHVKPEEHEQVKSRLEQKSGELGKKITELTLKNQTLQKEIEKVYLDNKLLKEQAHNLTIEMKNHYVPLKVSEDMKKSHDAIIDDLNRKLLDVTQKYTEKKLEMEKLLLENDSLSKDVSRLETVFVPPEKHEKEIIALKSNIVELKKQLSELKKKCGEDQEKIHALTSENTNLKKMMSNQYVPVKTHEEVKMTLNDTLAKTNRELLDVKKKFEDINQEFVKIKDKNEILKRNLENTQNQIKAEYISLAEHEAKMSSLSQSMRKVQDSNAEILANYRKGQEEIVTLHAEIKAQKKELDTIQECIKVKYAPIVSFEECERKFKATEKELKDQLSEQTQKYSVSEEEVKKNKQENDKLKKEIFTLQKDLRDKTVLIEKSHEMERALSRKTDELNKQLKDLSQKYTEVKNVKEKLVEENAKQTSEILAVQNLLQKQHVPLEQVEALKKSLNGTIENLKEELKSMQRCYEKEQQTVTKLHQLLENQKNSSVPLAEHLQIKEAFEKEVGIIKASLREKEEESQNKMEEVSKLQSEVQNTKQALKKLETREVVDLSKYKATKSDLETQISSLNEKLANLNRKYEEVCEEVLHAKKKEISAKDEKELLHFSIEQEIKDQKERCDKSLTTITELQRRIQESAKQIEAKDNKITELLNDVERLKQALNGLSQLTYTSGNPTKRQSQLIDTLQHQVKSLEQQLADADRQHQEVIAIYRTHLLSAAQGHMDEDVQEALLQIIQMRQGLVC
Take B1: the binding entry in experiment [3] is “binds”.

B2: SRPRB (protein, UniProt Q9Y5M8 1-271)
chain: MASADSRRVADGGGAGGTFQPYLDTLRQELQQTDPTLLSVVVAVLAVLLTLVFWKLIRSRRSSQRAVLLVGLCDSGKTLLFVRLLTGLYRDTQTSITDSCAVYRVNNNRGNSLTLIDLPGHESLRLQFLERFKSSARAIVFVVDSAAFQREVKDVAEFLYQVLIDSMGLKNTPSFLIACNKQDIAMAKSAKLIQQQLEKELNTLRVTRSAAPSTLDSSSTAPAQLGKKGKEFEFSQLPLKVEFLECSAKGGRGDVGSADIQDLEKWLAKIA
For the molecule B2, in experiment [3], the binding entry is “binds”.

Values taken from PMC12541299.
